Results: paper doi:10.1101/2025.03.24.645127
No constants are given. Whether binding was seen depends on the method and setting. Binding seen in cells or lysates may run through a third protein. Some entries that bind do so weakly or less than the wild type.

Sequences of proteins named here, by UniProt entry; tags and fusion partners are left off.
UniProt P49407: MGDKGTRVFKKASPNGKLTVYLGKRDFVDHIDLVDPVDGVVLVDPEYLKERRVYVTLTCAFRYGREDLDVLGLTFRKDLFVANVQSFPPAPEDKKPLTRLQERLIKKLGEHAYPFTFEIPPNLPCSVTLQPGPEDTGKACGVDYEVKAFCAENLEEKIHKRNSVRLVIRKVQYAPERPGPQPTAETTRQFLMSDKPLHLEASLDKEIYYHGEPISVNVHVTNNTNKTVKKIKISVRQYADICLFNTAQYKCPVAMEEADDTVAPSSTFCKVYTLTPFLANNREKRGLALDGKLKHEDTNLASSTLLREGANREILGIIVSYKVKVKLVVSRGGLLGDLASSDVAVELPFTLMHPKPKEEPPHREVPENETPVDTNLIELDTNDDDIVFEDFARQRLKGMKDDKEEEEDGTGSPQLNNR

Biological target: T1, GPR119-SmBiT (human) (UniProt Q8TDV5)
T1 sequence: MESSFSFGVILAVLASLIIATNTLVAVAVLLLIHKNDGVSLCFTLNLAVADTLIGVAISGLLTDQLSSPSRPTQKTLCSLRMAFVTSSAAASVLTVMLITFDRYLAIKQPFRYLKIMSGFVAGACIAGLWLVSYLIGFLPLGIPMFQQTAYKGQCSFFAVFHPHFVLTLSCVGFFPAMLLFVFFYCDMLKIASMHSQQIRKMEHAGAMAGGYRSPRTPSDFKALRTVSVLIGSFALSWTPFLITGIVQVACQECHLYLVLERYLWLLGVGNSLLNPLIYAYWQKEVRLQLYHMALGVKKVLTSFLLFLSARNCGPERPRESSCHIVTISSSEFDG
Experiment: split reporter

- binding: binds
Substance: LgBiT-β-arrestin1 (from UniProt P49407 1-418)
